The target of the assay is Methylococcus capsulatus CYP51-ferredoxin fusion protein (sterol 14α-demethylase fused to a ferredoxin domain) (Methylococcus capsulatus) (UniProt Q603T8). Put plainly: SEC; M. capsulatus CYP51-fx in solution; conditions not given; both purified. Background: In gel filtration, larger molecules generally elute earlier.

No constants are given. Whether binding was seen depends on the method and setting. Sequences can lack the tags named with a protein.

B1: Methylococcus capsulatus CYP51-ferredoxin fusion protein (sterol 14α-demethylase fused to a ferredoxin domain) (enzyme, UniProt Q603T8 1-551)
chain: MSHPPSNTPPVKPGGLPLLGHILEFGKNPHAFLMALRHEFGDVAEFRMFHQRMVLLTGSQASEAFYRAPDEVLDQGPAYRIMTPIFGRGVVFDARIERKNQQLQMLMPALRDKPMRTYSEIIVAEVEAMLRDWKDAGTIDLLELTKELTIYTSSHCLLGAEFRHELNTEFAGIYRDLEMGIQPIAYVFPNLPLPVFKRRDQARVRLQELVTQIMERRARSQERSTNVFQMLIDASYDDGSKLTPHEITGMLIATIFAGHHTSSGTTAWVLIELLRRPEYLRRVRAEIDALFETHGRVTFESLRQMPQLENVIKEVLRLHPPLILLMRKVMKDFEVQGMRIEAGKFVCAAPSVTHRIPELFPNPELFDPDRYTPERAEDKDLYGWQAFGGGRHKCSGNAFAMFQIKAIVCVLLRNYEFELAAAPESYRDDYRKMVVEPASPCLIRYRRRDAPAAVDAKASAGEAPAETLRGAFRVTVDRDLCKGHGNCMAEAPEIFRVDEDGRLTLLSETPDPVLVGAALAAERFCPARAIKILPQRDPATRDRSLSPSGED
As to B1, the binding entry is on record as “no binding”.

(Values after publication PMC9519919.)
